Source: the supplement of paper PMC10849652
This is one part of the list.

Sequences of proteins named here, by UniProt entry; tags and fusion partners are left off. A change or cut given only in a name is not applied to a line headed by its entry.
UniProt Q16587: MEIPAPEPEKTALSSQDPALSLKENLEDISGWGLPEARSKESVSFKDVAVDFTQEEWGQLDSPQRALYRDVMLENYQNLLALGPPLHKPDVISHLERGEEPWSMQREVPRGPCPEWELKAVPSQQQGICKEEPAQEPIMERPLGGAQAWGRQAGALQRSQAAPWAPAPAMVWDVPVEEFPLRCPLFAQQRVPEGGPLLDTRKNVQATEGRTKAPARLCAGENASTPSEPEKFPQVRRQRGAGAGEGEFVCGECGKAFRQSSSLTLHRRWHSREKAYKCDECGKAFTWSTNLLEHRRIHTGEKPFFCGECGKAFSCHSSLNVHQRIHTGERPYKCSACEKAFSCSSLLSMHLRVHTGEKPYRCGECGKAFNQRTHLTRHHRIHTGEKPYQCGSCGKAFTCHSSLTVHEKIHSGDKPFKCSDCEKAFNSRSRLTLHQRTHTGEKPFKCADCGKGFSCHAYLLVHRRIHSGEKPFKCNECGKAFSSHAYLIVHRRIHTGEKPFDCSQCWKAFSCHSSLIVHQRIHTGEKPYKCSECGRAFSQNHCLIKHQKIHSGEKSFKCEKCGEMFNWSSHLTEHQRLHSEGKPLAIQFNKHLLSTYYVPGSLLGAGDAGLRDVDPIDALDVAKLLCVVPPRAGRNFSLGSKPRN
UniProt O43257, whole entry, looked up: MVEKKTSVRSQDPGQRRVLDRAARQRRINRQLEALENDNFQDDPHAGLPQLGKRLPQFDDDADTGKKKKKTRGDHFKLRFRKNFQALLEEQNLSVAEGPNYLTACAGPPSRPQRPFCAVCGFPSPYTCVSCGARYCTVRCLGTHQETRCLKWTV
UniProt Q6WRX3: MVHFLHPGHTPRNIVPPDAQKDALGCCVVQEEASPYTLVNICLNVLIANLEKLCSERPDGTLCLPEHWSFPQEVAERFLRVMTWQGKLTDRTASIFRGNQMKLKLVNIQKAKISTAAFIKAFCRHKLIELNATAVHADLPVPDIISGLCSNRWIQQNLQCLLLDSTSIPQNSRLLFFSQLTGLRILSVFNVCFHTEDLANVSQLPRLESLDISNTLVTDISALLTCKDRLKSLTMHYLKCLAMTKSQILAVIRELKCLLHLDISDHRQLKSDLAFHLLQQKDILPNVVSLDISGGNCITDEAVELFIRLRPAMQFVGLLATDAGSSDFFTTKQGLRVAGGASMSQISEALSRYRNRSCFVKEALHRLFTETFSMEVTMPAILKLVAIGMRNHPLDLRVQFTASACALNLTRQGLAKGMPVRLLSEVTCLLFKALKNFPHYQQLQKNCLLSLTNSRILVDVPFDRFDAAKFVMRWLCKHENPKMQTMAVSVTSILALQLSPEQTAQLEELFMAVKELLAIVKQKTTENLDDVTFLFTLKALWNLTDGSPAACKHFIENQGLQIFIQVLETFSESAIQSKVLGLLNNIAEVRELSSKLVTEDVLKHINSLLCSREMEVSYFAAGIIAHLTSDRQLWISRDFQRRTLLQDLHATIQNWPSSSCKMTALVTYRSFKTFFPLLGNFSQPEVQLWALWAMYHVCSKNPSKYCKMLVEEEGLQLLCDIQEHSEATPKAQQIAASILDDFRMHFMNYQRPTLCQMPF
UniProt Q96BR6: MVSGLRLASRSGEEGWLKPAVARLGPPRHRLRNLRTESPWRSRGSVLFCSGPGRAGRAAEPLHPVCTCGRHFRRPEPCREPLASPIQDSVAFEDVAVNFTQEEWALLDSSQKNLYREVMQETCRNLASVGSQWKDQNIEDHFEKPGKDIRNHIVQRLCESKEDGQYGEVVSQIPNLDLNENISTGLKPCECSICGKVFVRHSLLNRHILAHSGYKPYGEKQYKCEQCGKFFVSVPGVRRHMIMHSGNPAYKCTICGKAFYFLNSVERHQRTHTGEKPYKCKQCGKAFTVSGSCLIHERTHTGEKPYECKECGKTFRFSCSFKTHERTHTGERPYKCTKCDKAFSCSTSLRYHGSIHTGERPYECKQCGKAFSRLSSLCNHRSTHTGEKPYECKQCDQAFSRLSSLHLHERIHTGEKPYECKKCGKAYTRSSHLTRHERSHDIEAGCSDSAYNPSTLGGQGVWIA
UniProt Q8N0Y2: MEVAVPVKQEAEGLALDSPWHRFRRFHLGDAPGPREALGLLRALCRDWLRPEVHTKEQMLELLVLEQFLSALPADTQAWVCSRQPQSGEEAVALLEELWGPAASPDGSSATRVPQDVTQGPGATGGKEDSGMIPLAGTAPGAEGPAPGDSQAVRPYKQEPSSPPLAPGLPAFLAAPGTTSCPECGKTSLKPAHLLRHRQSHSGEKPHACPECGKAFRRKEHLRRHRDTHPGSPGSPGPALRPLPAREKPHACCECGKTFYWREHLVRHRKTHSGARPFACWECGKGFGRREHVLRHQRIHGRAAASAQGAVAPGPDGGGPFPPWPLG
UniProt Q9UL40: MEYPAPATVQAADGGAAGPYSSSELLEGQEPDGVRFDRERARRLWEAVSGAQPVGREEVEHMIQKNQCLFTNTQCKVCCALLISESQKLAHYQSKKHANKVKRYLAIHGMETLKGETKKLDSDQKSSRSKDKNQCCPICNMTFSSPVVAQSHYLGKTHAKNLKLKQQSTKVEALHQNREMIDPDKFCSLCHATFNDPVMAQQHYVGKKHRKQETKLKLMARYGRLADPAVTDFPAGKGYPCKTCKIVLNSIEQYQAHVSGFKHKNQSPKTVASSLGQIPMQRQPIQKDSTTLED
UniProt Q6ZN55: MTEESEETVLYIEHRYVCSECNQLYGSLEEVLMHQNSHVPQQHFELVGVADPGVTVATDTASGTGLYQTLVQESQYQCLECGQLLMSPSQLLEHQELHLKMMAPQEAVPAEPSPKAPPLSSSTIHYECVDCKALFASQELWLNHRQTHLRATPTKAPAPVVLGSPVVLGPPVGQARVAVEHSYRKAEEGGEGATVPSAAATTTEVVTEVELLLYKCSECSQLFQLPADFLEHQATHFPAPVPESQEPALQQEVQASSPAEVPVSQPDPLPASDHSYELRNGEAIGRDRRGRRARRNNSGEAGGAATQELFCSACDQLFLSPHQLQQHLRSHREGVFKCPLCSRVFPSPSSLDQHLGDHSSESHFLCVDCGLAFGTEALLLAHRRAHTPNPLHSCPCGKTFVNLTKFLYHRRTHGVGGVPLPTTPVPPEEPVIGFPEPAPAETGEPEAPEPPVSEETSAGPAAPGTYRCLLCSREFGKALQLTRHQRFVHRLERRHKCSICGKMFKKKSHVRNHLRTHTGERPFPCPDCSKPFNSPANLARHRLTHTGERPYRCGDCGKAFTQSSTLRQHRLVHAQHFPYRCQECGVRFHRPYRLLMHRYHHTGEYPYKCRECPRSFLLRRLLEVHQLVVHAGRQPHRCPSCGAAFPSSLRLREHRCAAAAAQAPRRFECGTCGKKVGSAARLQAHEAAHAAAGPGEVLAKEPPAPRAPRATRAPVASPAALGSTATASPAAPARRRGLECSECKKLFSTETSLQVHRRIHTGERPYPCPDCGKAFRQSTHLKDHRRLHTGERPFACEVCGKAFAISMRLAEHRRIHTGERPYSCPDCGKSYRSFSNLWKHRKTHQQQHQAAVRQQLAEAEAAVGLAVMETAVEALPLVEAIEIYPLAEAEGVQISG
ZNF654, A0A1B0GWA0, UniProt A0A1B0GWA0, whole entry, looked up: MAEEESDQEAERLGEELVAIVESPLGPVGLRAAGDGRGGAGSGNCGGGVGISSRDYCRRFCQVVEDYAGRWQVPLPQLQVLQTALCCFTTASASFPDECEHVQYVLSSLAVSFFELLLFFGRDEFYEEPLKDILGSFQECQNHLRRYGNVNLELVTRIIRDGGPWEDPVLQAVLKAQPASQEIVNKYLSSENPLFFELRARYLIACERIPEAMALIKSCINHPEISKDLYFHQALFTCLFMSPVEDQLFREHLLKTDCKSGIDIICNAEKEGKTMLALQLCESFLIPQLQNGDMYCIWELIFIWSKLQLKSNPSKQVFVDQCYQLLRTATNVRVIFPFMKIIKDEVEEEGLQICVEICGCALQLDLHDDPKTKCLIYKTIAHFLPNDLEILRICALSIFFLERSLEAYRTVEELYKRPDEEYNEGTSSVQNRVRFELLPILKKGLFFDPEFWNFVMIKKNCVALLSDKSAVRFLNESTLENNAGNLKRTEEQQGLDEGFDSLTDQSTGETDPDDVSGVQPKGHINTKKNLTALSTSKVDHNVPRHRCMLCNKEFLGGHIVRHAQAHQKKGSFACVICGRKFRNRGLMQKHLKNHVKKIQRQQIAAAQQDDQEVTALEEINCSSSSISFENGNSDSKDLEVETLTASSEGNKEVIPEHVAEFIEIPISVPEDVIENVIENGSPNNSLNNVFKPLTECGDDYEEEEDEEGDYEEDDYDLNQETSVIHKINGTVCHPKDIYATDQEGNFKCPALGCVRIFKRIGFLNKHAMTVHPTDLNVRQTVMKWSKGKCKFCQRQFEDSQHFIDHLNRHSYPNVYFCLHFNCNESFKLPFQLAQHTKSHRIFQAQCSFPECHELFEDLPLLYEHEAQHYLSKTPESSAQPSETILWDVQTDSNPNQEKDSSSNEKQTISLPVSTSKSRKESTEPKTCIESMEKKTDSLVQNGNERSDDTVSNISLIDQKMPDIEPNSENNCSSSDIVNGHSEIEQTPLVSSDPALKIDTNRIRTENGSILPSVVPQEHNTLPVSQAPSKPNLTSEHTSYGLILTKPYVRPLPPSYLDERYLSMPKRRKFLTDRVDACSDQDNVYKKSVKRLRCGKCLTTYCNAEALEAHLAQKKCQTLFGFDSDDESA
UniProt Q8N1G0: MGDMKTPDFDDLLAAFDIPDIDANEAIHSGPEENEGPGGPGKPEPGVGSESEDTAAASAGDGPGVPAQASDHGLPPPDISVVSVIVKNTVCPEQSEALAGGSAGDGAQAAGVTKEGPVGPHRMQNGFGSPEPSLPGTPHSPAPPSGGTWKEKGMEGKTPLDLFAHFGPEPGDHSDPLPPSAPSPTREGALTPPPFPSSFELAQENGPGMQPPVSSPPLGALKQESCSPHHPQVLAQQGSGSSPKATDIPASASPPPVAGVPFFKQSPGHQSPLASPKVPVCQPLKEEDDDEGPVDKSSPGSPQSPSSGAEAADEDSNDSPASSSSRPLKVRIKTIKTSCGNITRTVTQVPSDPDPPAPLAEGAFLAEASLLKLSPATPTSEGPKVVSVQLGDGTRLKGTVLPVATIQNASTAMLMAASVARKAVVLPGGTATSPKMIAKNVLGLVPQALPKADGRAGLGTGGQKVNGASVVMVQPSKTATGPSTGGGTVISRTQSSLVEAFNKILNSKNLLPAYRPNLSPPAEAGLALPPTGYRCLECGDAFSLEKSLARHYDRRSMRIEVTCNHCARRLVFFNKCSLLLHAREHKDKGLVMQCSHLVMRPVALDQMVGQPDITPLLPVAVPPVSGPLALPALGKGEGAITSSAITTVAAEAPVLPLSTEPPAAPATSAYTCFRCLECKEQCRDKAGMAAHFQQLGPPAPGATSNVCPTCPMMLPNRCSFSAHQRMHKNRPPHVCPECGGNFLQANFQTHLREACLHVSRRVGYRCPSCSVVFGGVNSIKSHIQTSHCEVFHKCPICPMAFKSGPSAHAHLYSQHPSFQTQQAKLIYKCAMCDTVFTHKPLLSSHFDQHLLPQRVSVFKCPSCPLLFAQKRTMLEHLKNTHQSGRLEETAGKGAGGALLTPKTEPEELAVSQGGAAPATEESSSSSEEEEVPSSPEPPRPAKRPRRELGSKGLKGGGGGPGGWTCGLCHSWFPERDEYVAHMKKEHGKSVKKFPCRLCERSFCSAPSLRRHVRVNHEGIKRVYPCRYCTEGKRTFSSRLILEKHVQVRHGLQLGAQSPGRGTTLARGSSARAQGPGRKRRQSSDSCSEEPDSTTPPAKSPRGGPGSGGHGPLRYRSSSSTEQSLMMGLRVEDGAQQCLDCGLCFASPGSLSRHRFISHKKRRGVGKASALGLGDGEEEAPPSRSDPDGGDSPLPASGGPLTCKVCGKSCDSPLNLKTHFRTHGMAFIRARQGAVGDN
UniProt Q8TF68: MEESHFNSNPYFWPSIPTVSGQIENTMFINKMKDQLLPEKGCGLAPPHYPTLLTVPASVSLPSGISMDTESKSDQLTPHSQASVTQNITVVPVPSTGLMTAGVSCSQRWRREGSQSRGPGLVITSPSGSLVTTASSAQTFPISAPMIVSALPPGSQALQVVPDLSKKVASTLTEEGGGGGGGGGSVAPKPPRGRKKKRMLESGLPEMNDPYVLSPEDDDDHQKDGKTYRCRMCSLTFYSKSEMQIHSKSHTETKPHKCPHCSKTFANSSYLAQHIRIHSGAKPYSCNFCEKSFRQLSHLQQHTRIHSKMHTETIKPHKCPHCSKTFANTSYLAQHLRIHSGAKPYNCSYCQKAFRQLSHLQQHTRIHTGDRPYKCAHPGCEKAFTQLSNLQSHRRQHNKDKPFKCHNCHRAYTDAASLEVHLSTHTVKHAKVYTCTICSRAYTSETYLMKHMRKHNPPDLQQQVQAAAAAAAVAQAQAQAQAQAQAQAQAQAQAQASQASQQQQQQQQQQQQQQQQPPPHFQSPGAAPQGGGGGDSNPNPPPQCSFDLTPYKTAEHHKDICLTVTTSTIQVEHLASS

compound: CCN(CCCOc1ccc2c(Nc3cc(CC(=O)Nc4cccc(F)c4)[nH]n3)ncnc2c1)CCOP(=O)(O)O [barasertib]; experiment: log2 fold change, soluble protein after heating vs DMSO (PISA); higher = thermal stabilisation; K562 lysate, 10 uM; active = over 0.2 and 3.5 SD of the protein, either way, in both replicates (recomputed)
Procedure, shortened: (§1)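 Quantification was by TMTpro 16plex LC-MS/MS with equalised channel sums, applied to the supernatant after 21,000xg for 90 min. Samples were crude K562 extract at 1 mg/mL protein in PBS pH 7.4 with 1 mM MgCl2, treated with 10 μM compound for 30 min, heated for 3 min across 48°C-58°C, pooled and brought to 0.5% NP-40 at 4°C. Values are log-two fold changes in thermal stability relative to solvent controls, from duplicates.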

| Target | log2 fold change |
| --- | --- |
| ZNF460 (UniProt Q14592) | inactive: 0.065 |
| ZNF280B (UniProt Q86YH2) | inactive: -0.046 |
| ZNF445 (UniProt P59923) | inactive: 0.254 |
| ZNF74 isoform 5 (UniProt Q16587) | inactive: 0.124 |
| ZNF771 (UniProt Q7L3S4) | inactive: -0.077 |
| ZNHIT1 (UniProt O43257) | inactive: -0.116 |
| ZYG11A (UniProt Q6WRX3) | inactive: 0.286 |
| ZNF669 (UniProt Q96BR6) | inactive: 0.134 |
| ZNF444 (UniProt Q8N0Y2) | inactive: 0.151 |
| ZNF525 (UniProt J3KR51) | inactive: 0.033 |
| ZNF417 (UniProt Q8TAU3) | inactive: -0.08 |
| ZNF8 (UniProt P17098) | inactive: 0.287 |
| ZNF592 (UniProt Q92610) | inactive: 0.042 |
| ZNF346 (UniProt Q9UL40) | inactive: 0.013 |
| ZNF574 isoform 2 (UniProt Q6ZN55) | inactive: 0.062 |
| ZNF654, A0A1B0GWA0 | inactive: 0.159 |

compound: CC[C@@H]1C(=O)N(C)c2cnc(Nc3ccc(C(=O)NC4CCN(C)CC4)cc3OC)nc2N1C1CCCC1; experiment: as above
Procedure, shortened: as §1

| Target | log2 fold change |
| --- | --- |
| ZNF460 (UniProt Q14592) | inactive: -0.028 |
| ZNF48 (UniProt Q96MX3) | inactive: 0 |
| ZNF595 (UniProt Q8IYB9) | inactive: -0.038 |
| ZNF326 (UniProt Q5BKZ1) | inactive: 0.004 |
| ZNF74 isoform 5 (UniProt Q16587) | inactive: 0.229 |
| ZNF687 (UniProt Q8N1G0) | inactive: 0.056 |
| ZNHIT1 (UniProt O43257) | inactive: -0.038 |
| ZNF77 (UniProt Q15935) | inactive: -0.062 |
| ZNF708 (UniProt P17019) | inactive: -0.081 |
| ZNF592 (UniProt Q92610) | inactive: 0.006 |
| ZNF346 (UniProt Q9UL40) | inactive: 0.029 |
| ZNF384 (UniProt Q8TF68) | inactive: 0.161 |
| ZNF574 isoform 2 (UniProt Q6ZN55) | inactive: 0.226 |

compound: CC[C@@H]1C(=O)N(C)c2cnc(Nc3ccc(C(=O)N[C@H]4CC[C@H](N5CCN(CC6CC6)CC5)CC4)cc3OC)nc2N1C(C)C [volasertib]; experiment: as above
Procedure, shortened: as §1

| Target | log2 fold change |
| --- | --- |
| ZNF800 (UniProt Q2TB10) | inactive: -0.078 |
| ZNF785 (UniProt A8K8V0) | inactive: -0.016 |
| ZNF101 (UniProt Q8IZC7) | inactive: -0.068 |
| ZNF48 (UniProt Q96MX3) | inactive: 0.013 |
| ZNF74 isoform 5 (UniProt Q16587) | inactive: 0.143 |
| ZNF687 (UniProt Q8N1G0) | inactive: 0.042 |
| ZNF512B (UniProt Q96KM6) | inactive: -0.051 |
| ZNF771 (UniProt Q7L3S4) | inactive: -0.081 |
| ZYG11A (UniProt Q6WRX3) | inactive: -0.017 |
| ZNF668 isoform 2 (UniProt Q96K58) | inactive: -0.018 |
| ZNF669 (UniProt Q96BR6) | inactive: -0.107 |
| ZNF358 (UniProt Q9NW07) | inactive: -0.085 |
| ZNF592 (UniProt Q92610) | inactive: -0.067 |
| ZNF346 (UniProt Q9UL40) | inactive: -0.047 |
| ZNF324 (UniProt O75467) | inactive: -0.167 |
| ZNF384 (UniProt Q8TF68) | inactive: -0.234 |
| ZNF280D (UniProt Q6N043) | inactive: -0.005 |
| ZNF574 isoform 2 (UniProt Q6ZN55) | inactive: -0.055 |
| ZNF654, A0A1B0GWA0 | inactive: -0.061 |

compound: CCn1c(C(=O)N(C2CC2)C2CC2)cc2c3c(ncn3C)c(Nc3cc(C)n(C)n3)nc21; experiment: as above
Procedure, shortened: as §1

| Target | log2 fold change |
| --- | --- |
| ZNF639 (UniProt Q9UID6) | inactive: -0.047 |
| ZNF101 (UniProt Q8IZC7) | inactive: 0.003 |
| ZSWIM7 (UniProt Q19AV6) | inactive: 0.06 |
| ZNF595 (UniProt Q8IYB9) | inactive: 0.158 |
| ZNF445 (UniProt P59923) | inactive: -0.123 |
| ZNF326 (UniProt Q5BKZ1) | inactive: 0.002 |
| ZNF74 isoform 5 (UniProt Q16587) | inactive: -0.139 |
| ZNF687 (UniProt Q8N1G0) | inactive: 0.022 |
| ZNF512B (UniProt Q96KM6) | inactive: 0.001 |
| ZNHIT1 (UniProt O43257) | inactive: -0.024 |
| ZYG11A (UniProt Q6WRX3) | inactive: -0.035 |
| ZNF669 (UniProt Q96BR6) | inactive: 0.039 |
| ZNF444 (UniProt Q8N0Y2) | inactive: 0.026 |
| ZNF8 (UniProt P17098) | inactive: 0.021 |
| ZNF592 (UniProt Q92610) | inactive: 0.249 |
| ZNF346 (UniProt Q9UL40) | inactive: -0.018 |
| ZNF324 (UniProt O75467) | inactive: -0.065 |
| ZNF384 (UniProt Q8TF68) | inactive: 0.16 |
| ZNF280D (UniProt Q6N043) | inactive: 0.282 |
| ZNF574 isoform 2 (UniProt Q6ZN55) | inactive: 0.029 |
| ZNF654, A0A1B0GWA0 | inactive: -0.071 |
